In patent US8691805B2, “Azetidinyl diamides as monoacylglycerol lipase inhibitors” (Janssen Pharmaceutica NV, priority 2009, dated 2014):
The match of structure and compound is tentative.

By UniProt entry, the sequences of proteins in these tests, tags left out.
UniProt Q99685, whole entry: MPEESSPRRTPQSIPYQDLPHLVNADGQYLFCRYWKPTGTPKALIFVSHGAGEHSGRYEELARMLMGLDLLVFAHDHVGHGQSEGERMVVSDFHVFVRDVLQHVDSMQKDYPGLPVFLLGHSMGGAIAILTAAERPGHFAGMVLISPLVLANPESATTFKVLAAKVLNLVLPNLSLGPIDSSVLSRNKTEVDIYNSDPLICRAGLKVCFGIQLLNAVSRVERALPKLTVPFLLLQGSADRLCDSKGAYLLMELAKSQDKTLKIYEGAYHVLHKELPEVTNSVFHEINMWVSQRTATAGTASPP
UniProt Q8R431, whole entry: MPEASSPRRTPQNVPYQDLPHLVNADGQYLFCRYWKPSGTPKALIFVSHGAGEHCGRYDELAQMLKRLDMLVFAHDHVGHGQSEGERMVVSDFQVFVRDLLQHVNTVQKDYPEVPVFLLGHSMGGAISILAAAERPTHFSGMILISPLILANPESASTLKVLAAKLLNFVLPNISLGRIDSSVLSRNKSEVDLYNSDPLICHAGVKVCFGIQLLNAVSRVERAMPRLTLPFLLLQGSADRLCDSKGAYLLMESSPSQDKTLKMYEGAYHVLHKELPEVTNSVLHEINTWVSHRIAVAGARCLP

Key:
[1] = target: purified wild type MGL (wt-MGLL 6H-11-313) (Homo sapiens, UniProt Q99685)
[2] = target: MGL in rat brain homogenate (Rattus norvegicus, UniProt Q8R431); experiment: 2-AG accumulation assay in rat brain homogenate; type: biochemical; conditions: compound 1 μM, 2-AG accumulation as percent of vehicle

IC50 [1]: < 5 nM
Rat Brain 2AG % VehCntrl (%) @1 μM [2]: 458%
SMILES: O=C(c1ccc(Cc2ccc(C(F)(F)F)cc2)cc1)N1CCN(C2CN(C(=O)c3cscn3)C2)CC1
